Data reported in PMC5945496.
No constants are given. Whether binding was seen depends on the method and setting. Binding seen in cells or lysates may run through a third protein. Some binding calls cover weakened binding; strength is not graded here.

Target: T1, nuclear factor erythroid 2-related factor 2 (NRF2) (human (endogenous in H1299)) (UniProt Q16236)
T1 sequence: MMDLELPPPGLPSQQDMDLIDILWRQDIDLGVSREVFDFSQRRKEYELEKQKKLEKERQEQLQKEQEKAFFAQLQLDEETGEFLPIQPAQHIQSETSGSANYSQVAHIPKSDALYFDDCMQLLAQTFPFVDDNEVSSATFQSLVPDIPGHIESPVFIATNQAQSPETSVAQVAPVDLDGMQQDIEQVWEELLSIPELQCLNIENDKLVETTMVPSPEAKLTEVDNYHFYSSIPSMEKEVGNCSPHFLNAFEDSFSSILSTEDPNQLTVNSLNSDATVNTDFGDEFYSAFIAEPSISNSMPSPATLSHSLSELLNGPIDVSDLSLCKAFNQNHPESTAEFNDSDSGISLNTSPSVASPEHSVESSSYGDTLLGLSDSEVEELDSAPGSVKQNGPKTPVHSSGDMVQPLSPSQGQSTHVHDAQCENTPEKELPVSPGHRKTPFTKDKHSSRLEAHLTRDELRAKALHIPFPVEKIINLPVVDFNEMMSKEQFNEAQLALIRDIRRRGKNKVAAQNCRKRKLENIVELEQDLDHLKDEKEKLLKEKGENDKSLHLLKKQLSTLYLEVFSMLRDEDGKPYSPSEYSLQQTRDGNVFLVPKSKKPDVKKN
Assay: co-IP; immunoprecipitation of endogenous NRF2 (anti-NRF2 antibody, protein G-Sepharose) from lysates of H1299 cells transiently transfected with p53R175H or p53 peptide aptamer vectors; Co-IP buffer 150 mM NaCl, 50 mM Tris-HCl pH 8, 1 mM EDTA, 0.5% NP40, 10% glycerol; overnight at 4°C; western blot

## peptide1 (pep1), p53 peptide aptamer corresponding to aa 98-128 of the p53 DNA-binding domain (from UniProt P04637 98-128)
  binding: binds
